# In patent US11091517B2, “Peptide derivative and pharmaceutical composition containing same” (TOKUSHIMA UNIVERSITY, priority 2017, dated 2021):
# For at least one compound, name, drawing or mass did not settle the structure.
# Tested on: PKCα
# Assay type: cell-based, human
# Conditions: 100 nM, 24 hours; MCF-7 cells transfected with ESR1 mutants
smiles,measurement,value
COC[C@H]1OC(=O)c2coc3c2[C@@]1(C)C1=C(C3=O)[C@@H]2CCC(=O)[C@@]2(C)C[C@H]1OC(C)=O [wortmannin],PKCα activity of ESR1 mutant cells,significantly suppressed
